The list shows a part of the results. Shown are side measurements of this screen, not its main read-out; they come without a call. Compounds called inactive in the main read-out are mostly missing here. Potencies come from curve fits of mixed quality, noted in brackets.
Assay: qHTS Assay for Lipid Storage Modulators in Drosophila S3 Cells;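 on cell number change: cells counted by Cell Tracker Red CMTPX staining in the red channel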
Conditions: BODIPY lipid droplet fluorescence, 18-24 h; for cell number change: measured here: cell count max response, cells fed with added oleic acid
In short: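 Drosophila S3 cells got compounds at several concentrations plus oleic acid (400 uM solution). Laser-scanning cytometry with 488 nm excitation read lipid droplets at 500-530 nm and cells at 575-640 nm. Percent activity was relative to 20 uM Triacsin C.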

[1] = measured here: cell number channel AC50, cells fed with added oleic acid
[2] = measured here: lipid fluorescence (Fed channel) AC50, cells fed with added oleic acid

CCCOC(=O)C1=C(C)NC2=C(C(=O)CC(C)(C)C2)C1c1ccc(N(C)C)cc1 (stereo not drawn)
AC50 [1]: 5.8 µM [rising, single point]
AC50 [2]: 0.00411 µM [falling, full curve, poor fit]

Cc1cc(C)n2nc(SCCOc3ccccc3F)nc2n1
AC50 [2]: 0.116 µM [falling, full curve, poor fit]

Cc1ccc(CNC(=O)C2CCCN(S(=O)(=O)c3cccnc3)C2)cc1 (stereo not drawn)
cell number change: -5.54%
AC50 [2]: 0.146 µM [rising, full curve, poor fit]

CCOc1ccc(C(=O)NCCc2cnc[nH]2)cc1
cell number change: -32.4%
AC50 [1]: 29.1 µM [falling, single point]

CC1C(=O)NN=C1C(=O)N/N=C/c1ccco1 (stereo not drawn)
cell number change: -16.9%
AC50 [1]: 0.517 µM [rising, single point]

COc1cccc(C2(O)CC(C(F)(F)F)=NN2C(=O)c2ccccn2)c1 (stereo not drawn)
cell number change: 15.2%
AC50 [2]: 0.92 µM [rising, single point]

COc1ccccc1CNC(=O)c1ccc(S(=O)(=O)N(C)C)cc1
cell number change: -53.1%
AC50 [1]: 0.164 µM [falling, full curve, poor fit]

Cc1ccc(S(=O)(=O)N(C)CC(=O)N2CCCc3ccccc32)cc1
cell number change: -11.9%
AC50 [2]: 0.731 µM [falling, single point]

CCOc1ccc2nc(SCC(=O)NCc3ccc(OC)cc3)[nH]c2c1
AC50 [2]: 6.51 µM [rising, partial curve, poor fit]

COc1ccc(/C=N/NC(N)=S)cc1OC(=O)c1cccc2ccccc12
cell number change: 23%

Cc1cc2nc3c(=O)n(CCc4ccccc4)c(=O)[nH]c3nc2cc1N
AC50 [2]: 29.1 µM [falling, single point]

COc1ccc(NC(=O)CS(=O)CC(=O)Nc2ccc(-n3cnnn3)c(C)c2)cc1 (stereo not drawn)
cell number change: 4.17%

COc1ccc(S(=O)(=O)N2CCCCCC2)cc1C(=O)N(C)CC(=O)Nc1cc(C)ccc1C
AC50 [2]: 2.06 µM [rising, partial curve]

O=C1O/C(=C\c2ccccc2)c2ccccc21
cell number change: 9.16%
AC50 [2]: 20.6 µM [rising, partial curve]

Cc1ccc(-c2cc(C(=O)N3CCN(c4ccc(F)cc4)CC3)c3ccccc3n2)o1
cell number change: 116%

COc1ccccc1C(=O)NNC(=O)c1cccc(Br)c1
cell number change: 24.5%
AC50 [2]: 29.1 µM [rising, single point]

O=C(NNC1=C(C(=O)C(F)(F)F)CCC1)c1cccc(Cl)c1
cell number change: 22%
AC50 [2]: 6.51 µM [rising, single point]

CC(=O)Nc1ccc(/C=C/c2ccc3c([N+](=O)[O-])cccc3n2)cc1
AC50 [2]: 0.731 µM [rising, single point]

C=CCc1ccc(OCC(O)CN2CCCCC2)c(OC)c1 (stereo not drawn)
cell number change: 2.87%
AC50 [2]: 0.164 µM [falling, full curve, poor fit]

Cc1ccc(OCC(=O)N/N=C/c2ccc([N+](=O)[O-])o2)cc1
cell number change: -53.8%
AC50 [1]: 23.1 µM [falling, single point]

Cn1nc(-c2ccc(OCC(=O)Nc3ccccc3)cc2)c2ccccc2c1=O
cell number change: -10.6%
AC50 [2]: 0.651 µM [rising, single point]

O=C(CCC(=O)N1CCN(c2ccc(F)cc2)CC1)N1CCN(c2ccc(F)cc2)CC1
cell number change: -1.68%

COc1cccc(CCC(=O)Nc2cc3c(cc2C(=O)O)OCCCO3)c1OC
cell number change: -17%
AC50 [1]: 0.058 µM [falling, full curve, poor fit]
AC50 [2]: 6.51 µM [falling, full curve, poor fit]

COc1ccc2cc(S(=O)(=O)N3CCCCCC3)ccc2c1
cell number change: -26.7%
AC50 [2]: 29.1 µM [falling, single point]

Cc1sc2nc(CN3CCCC3)nc(N3CCN(S(=O)(=O)c4cccc(F)c4)CC3)c2c1C
cell number change: 8.9%
AC50 [2]: 5.8 µM [rising, full curve, poor fit]

Cc1ccc(N2C(=O)S/C(=C/c3cn(C)c4ccccc34)C2=O)cc1
cell number change: 15.9%
AC50 [1]: 1.84 µM [rising, single point]

CCOC(=O)c1ccc2nc(CCC(=O)N[C@H](C(=O)OC)C(C)C)c(=O)n(CC)c2c1
cell number change: 29.8%
AC50 [1]: 4.11 µM [rising, single point]

Cc1ccc(C(=O)c2c3ccc([N+](=O)[O-])cc3[n+]([O-])n2CCCC(N)=O)cc1
cell number change: -35.4%
AC50 [1]: 29.1 µM [falling, single point]
AC50 [2]: 3.66 µM [falling, single point]

CCc1nc(-c2ccccc2)c2ccccn12
cell number change: 5.17%
AC50 [2]: 0.731 µM [falling, single point]

COc1cc(/C=C2\SC(=Nc3ccc(O)cc3)NC2=O)cc(OC)c1OC
cell number change: 37.4%
AC50 [1]: 32.6 µM [rising, single point]
AC50 [2]: 29.1 µM [rising, single point]

O=C(NCc1ccc(F)cc1)C1CCN(S(=O)(=O)c2ccc(Cl)cc2)CC1
cell number change: 23.4%
AC50 [2]: 29.1 µM [falling, single point]

Cc1ncc([N+](=O)[O-])n1CC(=O)Nc1ccc(F)c(F)c1
cell number change: 51.8%
AC50 [1]: 20.6 µM [rising, single point]

COc1cc(C(=O)OCc2nc3ccsc3c(=O)[nH]2)c([N+](=O)[O-])cc1OC
cell number change: 11.1%
AC50 [2]: 0.82 µM [rising, single point]

O=C(CN1C(=O)CCSc2ccc(S(=O)(=O)N3CCCC3)cc21)NCc1ccccc1Cl
cell number change: 8.78%
AC50 [2]: 14.6 µM [rising, partial curve, poor fit]

Clc1ccc(-c2cccs2)nn1
cell number change: -4.21%
AC50 [2]: 0.13 µM [falling, full curve, poor fit]

COC(=O)c1ccc(CSc2n[nH]c(-c3ccccc3)n2)o1
cell number change: 3.5%
AC50 [1]: 0.146 µM [falling, partial curve, poor fit]
AC50 [2]: 0.411 µM [falling, full curve, poor fit]

CCc1cc(C(=O)Nc2nnc(C3CC3)s2)sc1C
cell number change: -6.55%
AC50 [2]: 20.6 µM [falling, single point]

CC(C)(c1ccccc1)c1ccc(OCC(O)CN2CCCC2)cc1 (stereo not drawn)
cell number change: 22.5%
AC50 [2]: 0.517 µM [falling, single point]

Cc1ccc(CN(C(=O)c2ccccc2[N+](=O)[O-])C2CCS(=O)(=O)C2)o1 (stereo not drawn)
cell number change: -12.9%
AC50 [1]: 1.84 µM [rising, partial curve, poor fit]
AC50 [2]: 29.1 µM [rising, single point]

Cc1cc(C)n2cc(COc3ccc4ccccc4c3)nc2n1
cell number change: 5.01%
AC50 [2]: 3.26 µM [rising, full curve]

O=C(Oc1ccc(C(=S)N2CCOCC2)cc1)c1ccc(F)cc1
cell number change: -22%

COc1cc(OC)cc(C(=O)Nc2ccc(S(=O)(=O)Nc3cc(C)nc(C)n3)cc2)c1
cell number change: 14.2%
AC50 [2]: 29.1 µM [falling, partial curve]

CCN1C(=O)[C@H]2[C@@H](c3ccc(-c4ccc(F)cc4)c(OC)c3)N[C@@](CC(C)C)(C(=O)OC)[C@H]2C1=O
cell number change: -59.1%
AC50 [1]: 23.1 µM [falling, partial curve]
AC50 [2]: 18.4 µM [falling, single point]

CC(C)NC(=O)CN(c1cccc(Br)c1)S(C)(=O)=O
cell number change: -101%
AC50 [1]: 20.6 µM [falling, partial curve, poor fit]
AC50 [2]: 16.4 µM [falling, partial curve]

Cc1ccc(C)c2[nH]c(=O)c(C(c3nnnn3C(C)(C)C)N3CC=C(c4ccc(F)cc4)CC3)cc12 (stereo not drawn)
cell number change: 28%
AC50 [2]: 20.6 µM [rising, single point]

OC1(c2ccc(F)cc2)CN(c2ccccc2)C2=[N+]1CCS2 (stereo not drawn)
cell number change: -24%
AC50 [2]: 29.1 µM [falling, single point]

Cn1cnc([N+](=O)[O-])c1NC(C)(C)C
AC50 [1]: 0.82 µM [falling, full curve, poor fit]
AC50 [2]: 5.8 µM [rising, full curve, poor fit]

CCOc1c(Cl)cc(CNCc2ccncc2)cc1OC
cell number change: 16.3%

Cc1nc2nc(C)c(NS(=O)(=O)c3ccc(Cl)cc3)c(=O)n2[nH]1
cell number change: -19%

CCOc1ccc(S(=O)(=O)N2CCC(C(=O)N3CCCC3)CC2)cc1C
cell number change: -4.2%
AC50 [2]: 29.1 µM [rising, single point]

CC(=O)Nc1ccc(S(=O)(=O)N2CCN=C2c2ccccc2)cc1
cell number change: -12.4%
AC50 [2]: 1.46 µM [falling, full curve]

CCCC(=O)c1c(NC(C)C)cc(C)oc1=O
cell number change: -1.33%
AC50 [2]: 29.1 µM [falling, single point]

COC(=O)/C=C/C(=O)N1CCN(c2cccc(Cl)c2)CC1
cell number change: -15.1%

CCOC(=O)C1CCN(C(=O)CN2C(=O)c3ccccc3Sc3ncccc32)CC1
cell number change: 2.14%

O=C(Nc1cccnc1)c1cc(S(=O)(=O)N2CCCCC2)c(Cl)cc1Cl
cell number change: -20%
AC50 [2]: 0.206 µM [rising, single point]

C=C1c2c(Cl)ccc(O)c2C(O)=C2C(=O)[C@]3(O)C(O)=C(C(N)=O)C(=O)[C@@H](N(C)C)[C@@H]3[C@@H](O)C12 (stereo partly drawn)
cell number change: 1.04%
AC50 [2]: 0.517 µM [falling, single point]

Cn1c(SCC(=O)NCc2ccccc2)nnc1C1CC1
cell number change: -0.408%
AC50 [2]: 6.51 µM [falling, single point]

COc1cccc(CN(C)C(=O)c2cc(S(=O)(=O)N3CCN(c4ccccc4)CC3)ccc2Cl)c1
AC50 [2]: 7.31 µM [falling, single point]

CC(C)Oc1ccc(CC2CC(=O)NC2=O)cc1 (stereo not drawn)
cell number change: -12.9%
AC50 [2]: 29.1 µM [falling, partial curve]

c1ccc2c(N3CCCCCC3)nc(-c3ccncc3)nc2c1
cell number change: -20.9%
AC50 [1]: 1.3 µM [rising, partial curve]
AC50 [2]: 2.06 µM [rising, partial curve]

— PubChem BioAssay AID2685 (National Center for Advancing Translational Sciences (NCATS), 2010)
